The other results are listed elsewhere or left out. The main result of the screen is listed elsewhere. These columns were measured beside it and carry no call. Most of these compounds were active or inconclusive in the main read-out, so they are no random draw. Words in brackets tell the shape of the fitted curve; partial curves, single points and poor fits give uncertain potencies.
Assay: qHTS Assay for Modulators of Lamin A Splicing
Settings: HeLa LMNA splicing GFP/RFP minigene ratio, 48 h
Procedure, shortened: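 Read-out is the ratio of GFP to DsRed2 object intensity, acquired by 488 nm laser-scanning cytometry on HeLa lamin A-EGFP minigene reporter cells. Compound incubation 48 hrs at 37 °C in Opti-MEM with 2% FBS; DMSO 0.5% final.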

[1] = measured here: GFP splicing reporter channel
[2] = measured here: RFP viability control channel

Compound: Cc1cc(C)c(Cc2c(C)nc3c(C(=O)NCc4ccco4)cnn3c2C)c(C)c1
- AC50 [1]: 2.82 µM [rising, partial curve]
- AC50 [2]: 28.2 µM [falling, single point]

Compound: O=C(NNC(=S)Nc1ccc(F)c(Cl)c1)c1ccccc1Br
- AC50 [1]: 12.6 µM [rising, single point]
- AC50 [2]: 14.1 µM [rising, single point]

Compound: S=c1[nH]nc(-c2ccccc2Cl)n1Cc1ccccc1
- AC50 [1]: 0.01 µM [rising, full curve]

Compound: Fc1ccc(Br)cc1C1C=C(c2ccc(Br)cc2)Nc2ncnn21 (centres undefined)
- AC50 [2]: 2.82 µM [rising, full curve, poor fit]

Compound: COc1ccc(-c2noc(CCC(=O)NCc3cccnc3)n2)cc1
- AC50 [2]: 15.8 µM [rising, single point]

Compound: CN[C@H]1[C@H](O)[C@@H](O[C@@H]2[C@H](O)[C@@H](O[C@H]3OC(CN)=CC[C@H]3N)[C@@H](N)C[C@H]2N)OC[C@@]1(C)O
- AC50 [1]: 1 µM [falling, partial curve, poor fit]
- AC50 [2]: 14.1 µM [falling, single point]

Compound: Cc1ccc(-n2[nH]c(C)c(/C=N/Nc3ccc([N+](=O)[O-])cc3[N+](=O)[O-])c2=O)cc1C
- AC50 [2]: 12.6 µM [rising, partial curve, poor fit]

Compound: CCN1c2ccccc2NC2C1C(C(C)=O)C(=O)N2c1ccc(Cl)cc1 (centres undefined)
- AC50 [1]: 6.31 µM [falling, single point]
- AC50 [2]: 6.31 µM [falling, single point]

Compound: CCN(Cc1cnn(C)c1)Cc1nc(C(c2ccccc2)c2ccccc2)no1
- AC50 [1]: 0.398 µM [rising, partial curve, poor fit]
- AC50 [2]: 22.4 µM [rising, partial curve, poor fit]

Compound: Cc1nc(C)n(CC(O)COc2ccc(C(=O)c3ccccc3)cc2)n1 (centres undefined)
- AC50 [1]: 12.6 µM [rising, single point]
- AC50 [2]: 22.4 µM [rising, single point]

Compound: C1CCC(Nc2nc3nonc3nc2N2CCSCC2)C1
- AC50 [2]: 0.0562 µM [falling, full curve, poor fit]

Compound: CCOC(=O)C(=Cc1ccc(F)cc1)C(=O)OCC
- AC50 [1]: 15.8 µM [falling, partial curve]
- AC50 [2]: 8.91 µM [falling, partial curve]

Compound: O=C(NCCc1ccc(Cl)cc1)c1n[nH]c2ccccc12
- AC50 [1]: 1.41 µM [falling, full curve, poor fit]

Compound: CCN(CC)CCn1c2ccccc2c2cnc(N=CN(C)C)c(C#N)c21
- AC50 [1]: 10 µM [rising, partial curve]
- AC50 [2]: 11.2 µM [rising, partial curve]

Compound: CC[n+]1c(/C=C/C=C/N(C(C)=O)c2ccccc2)sc2cc(OC)ccc21
- AC50 [1]: 12.6 µM [falling, partial curve, poor fit]
- AC50 [2]: 14.1 µM [falling, single point]

Compound: FC(F)Sc1ccc(N=C2NN=C(c3ccc4c(c3)OCCO4)CS2)cc1
- AC50 [1]: 3.16 µM [falling, single point]
- AC50 [2]: 20 µM [falling, single point]

Compound: Cc1ccc(NC(=O)c2cc(S(=O)(=O)NC3CCCCCC3)ccc2F)cc1F
- AC50 [1]: 14.1 µM [falling, partial curve]
- AC50 [2]: 35.5 µM [falling, partial curve]

Compound: COc1ccc(CCNc2oc(-c3ccc(C)cc3)nc2C#N)cc1OC
- AC50 [2]: 14.1 µM [rising, partial curve, poor fit]

Compound: CCOc1ccc(C(=O)NC(=S)Nc2ccc(N3CCOCC3)c(Cl)c2)cc1[N+](=O)[O-]
- AC50 [2]: 22.4 µM [rising, partial curve, poor fit]

Compound: CCOc1ccc(C(=O)N2CCc3cc(OC)c(OC)cc3C2)cc1OCC
- AC50 [1]: 31.6 µM [rising, single point]
- AC50 [2]: 20 µM [rising, single point]

Compound: CCOc1ccc(N2C(=O)CC(Sc3nc(C)cc(C)c3C#N)C2=O)cc1 (centres undefined)
- AC50 [1]: 0.0794 µM [rising, full curve, poor fit]

Compound: O=C1CC(N2CCN(c3ccccn3)CC2)C(=O)N1CC(c1ccccc1)c1ccccc1 (centres undefined)
- AC50 [2]: 20 µM [rising, single point]

Compound: COc1ccccc1NC1=NC(C)(C)N=C(N)N1
- AC50 [1]: 1.26 µM [rising, full curve]

Compound: O=S(=O)(c1cccc(-c2nnc(SC(F)F)n2-c2ccccc2)c1)N1CCCCC1
- AC50 [1]: 12.6 µM [rising, partial curve, poor fit]

Compound: NNC(=O)c1cnn(-c2ccccc2)c1-n1cccc1
- AC50 [1]: 3.55 µM [rising, single point]

Compound: Cn1cnnc1SCC(=O)c1cc2ccccc2oc1=O
- AC50 [2]: 35.5 µM [rising, single point]

Compound: CN(C)c1ccc(C=Nc2ccccc2C(N)=O)cc1
- AC50 [1]: 11.2 µM [rising, partial curve]

Compound: COc1ccc(NC(=O)Cn2nc3c(cc2=O)CCCC3)cc1Cl
- AC50 [1]: 3.55 µM [falling, full curve]

Compound: N#Cc1ccc(C(c2nnnn2CCc2ccccc2)N2CCCCCC2)cc1 (centres undefined)
- AC50 [1]: 11.2 µM [rising, single point]
- AC50 [2]: 14.1 µM [rising, single point]

Compound: COc1ccccc1C1=NN(C2=NN=C(N)Cc3ncnn32)C(O)(C(F)(F)F)C1 (centres undefined)
- AC50 [2]: 0.0178 µM [falling, full curve]

Compound: O=C(NCc1ccc(Cl)cc1)c1cc2ccc3cccnc3c2[nH]1
- AC50 [1]: 11.2 µM [falling, partial curve]
- AC50 [2]: 17.8 µM [falling, partial curve, poor fit]

Compound: CC1=C(c2ccc(F)cc2)S(=O)(=O)N=C1N1CCC(C(=O)NCCc2ccccc2)CC1
- AC50 [1]: 0.00447 µM [falling, full curve]

Compound: COc1cccc(C2CC(C(F)(F)F)n3nc(C(=O)NCc4cccnc4)cc3N2)c1 (centres undefined)
- AC50 [2]: 10 µM [rising, partial curve]

Compound: Cc1ccc(C)c(NC(=O)C2CCN(c3ncnc4c3nc3n4CCCCC3)CC2)c1
- AC50 [1]: 0.0501 µM [rising, full curve, poor fit]
- AC50 [2]: 0.0501 µM [rising, partial curve]

From PubChem BioAssay AID1487 (National Center for Advancing Translational Sciences (NCATS), 2009)
